In the supplement of paper PMC8007513 one finds growth data, which are given here for eight compounds.

The list shows a part of the results. Repeats are few or missing, and single values can be far off.

The test has as its system Saccharomyces cerevisiae BY4743. The test is described as follows: growth (OD600) with compound + IPBC relative to untreated control; higher = less growth inhibition. To be noted: compound concentration: 133 uM; IPBC concentration: 0.5 ug/ml; 20 h. How it is done: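 NMCCC compounds (133 uM) combined with IPBC (0.5 ug/ml) against Saccharomyces cerevisiae BY4743 in YPD, 96-well plates. Growth was read as OD600 at 20 h and expressed as % of the untreated control. Single pass.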
Consider `CCOC(=O)c1c(C)[nH]c(C(=O)OCC(=O)N2CCSC2c2ccccc2F)c1C` (stereo not drawn) + CCCCNC(=O)OCC#CI [3-iodo-2-propynyl butylcarbamate (IPBC)], for which the growth amounted to 116%.
Then `COC(=O)c1ccccc1S(=O)(=O)NCc1nc2nc(C)cc(C)n2n1` + CCCCNC(=O)OCC#CI [3-iodo-2-propynyl butylcarbamate (IPBC)], with 98.7%.
For `CCOC(=O)\C1=C(/COC(=O)C2=CC=CC=C2C(=O)C3=CC=CS3)NC(=O)NC1` + CCCCNC(=O)OCC#CI [3-iodo-2-propynyl butylcarbamate (IPBC)], the growth amounted to 103%.
Take `CCn1c(SCC(=O)Nc2cccc(C#N)c2)nnc1N1CCOCC1` + CCCCNC(=O)OCC#CI [3-iodo-2-propynyl butylcarbamate (IPBC)]: the growth turned out to be 99.5%.
Then `CCOC(=O)Nc1cccc(C(=O)NCc2ccc(N3CCCC3=O)cc2)c1` + CCCCNC(=O)OCC#CI [3-iodo-2-propynyl butylcarbamate (IPBC)], with 105%; and `COC(=O)c1nn(CC(=O)c2ccc(F)cc2)c2ccccc12` + CCCCNC(=O)OCC#CI [3-iodo-2-propynyl butylcarbamate (IPBC)], with 100%; and `Nc1cn(-c2ccccc2)nc1-c1ccc(Cl)cc1` + CCCCNC(=O)OCC#CI [3-iodo-2-propynyl butylcarbamate (IPBC)], with 92.9%.
Then `Cc1ccc(C(C)NC(=O)c2ccnn2C)c(C)c1` (stereo not drawn) + CCCCNC(=O)OCC#CI [3-iodo-2-propynyl butylcarbamate (IPBC)], with 86.2%.
